Assay results from paper PMC3869950.
Results are given in words; binding and its absence hold for the method and conditions named. Binding seen in cells or lysates may run through a third protein. Some entries that bind do so weakly or less than the wild type. Tags and fused reporters may be left off the sequences shown. Blank lines part the entries; values can stand above or below the binder they belong to.

Sequences of proteins named here, by UniProt entry; tags and fusion partners are left off.
UniProt P05556: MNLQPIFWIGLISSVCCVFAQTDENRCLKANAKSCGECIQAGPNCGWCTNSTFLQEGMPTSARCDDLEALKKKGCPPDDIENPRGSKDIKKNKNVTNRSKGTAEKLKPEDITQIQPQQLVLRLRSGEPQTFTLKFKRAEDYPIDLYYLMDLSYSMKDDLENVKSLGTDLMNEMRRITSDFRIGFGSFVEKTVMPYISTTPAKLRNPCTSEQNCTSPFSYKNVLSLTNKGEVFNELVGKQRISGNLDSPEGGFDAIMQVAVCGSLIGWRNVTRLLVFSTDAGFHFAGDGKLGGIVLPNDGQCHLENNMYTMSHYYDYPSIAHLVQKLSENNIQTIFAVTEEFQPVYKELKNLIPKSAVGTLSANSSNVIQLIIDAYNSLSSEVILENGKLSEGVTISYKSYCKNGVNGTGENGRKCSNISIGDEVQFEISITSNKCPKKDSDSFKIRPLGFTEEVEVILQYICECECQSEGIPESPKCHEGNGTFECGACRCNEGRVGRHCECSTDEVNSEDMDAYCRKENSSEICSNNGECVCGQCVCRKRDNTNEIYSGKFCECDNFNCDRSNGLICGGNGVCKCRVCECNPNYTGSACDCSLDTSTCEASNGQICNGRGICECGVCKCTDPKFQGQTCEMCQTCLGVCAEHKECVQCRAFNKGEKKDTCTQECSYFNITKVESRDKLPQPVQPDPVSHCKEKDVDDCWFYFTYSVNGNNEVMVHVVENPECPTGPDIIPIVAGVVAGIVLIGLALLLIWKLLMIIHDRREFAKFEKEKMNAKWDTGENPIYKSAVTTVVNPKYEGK

Biological target: β1 integrin (human (endogenous in LN229)) (UniProt P05556)
Experiment: co-IP; total LN229 cell lysates (Triton lysis buffer with protease/phosphatase inhibitors) precipitated with anti-β1 integrin or nonspecific IgG; blots probed with anti-His, anti-GFP or anti-β1

binding: binds
B1: N-terminal 6×His-tagged anosmin-1 (protein, UniProt P23352 25-680)
chain: AGPGAAAARRLDESLSAGSVQRARCASRCLSLQITRISAFFQHFQNNGSLVWCQNHKQCSKCLEPCKESGDLRKHQCQSFCEPLFPKKSYECLTSCEFLKYILLVKQGDCPAPEKASGFAAACVESCEVDNECSGVKKCCSNGCGHTCQVPKTLYKGVPLKPRKELRFTELQSGQLEVKWSSKFNISIEPVIYVVQRRWNYGIHPSEDDATHWQTVAQTTDERVQLTDIRPSRWYQFRVAAVNVHGTRGFTAPSKHFRSSKDPSAPPAPANLRLANSTVNSDGSVTVTIVWDLPEEPDIPVHHYKVFWSWMVSSKSLVPTKKKRRKTTDGFQNSVILEKLQPDCDYVVELQAITYWGQTRLKSAKVSLHFTSTHATNNKEQLVKTRKGGIQTQLPFQRRRPTRPLEVGAPFYQDGQLQVKVYWKKTEDPTVNRYHVRWFPEACAHNRTTGSEASSGMTHENYIILQDLSFSCKYKVTVQPIRPKSHSKAEAVFFTTPPCSALKGKSHKPVGCLGEAGHVLSKVLAKPENLSASFIVQDVNITGHFSWKMAKANLYQPMTGFQVTWAEVTTESRQNSLPNSIISQSQILPSDHYVLTVPNLRPSTLYRLEVQVLTPGGEGPATIKTFRTPELPPSSAHRSHLKHRHPHHYKPSPERY

binding: binds
B2: C-terminal GFP-tagged anosmin-1 (protein, UniProt P23352 25-680)
chain: B1 chain
